# Measurements: the supplement of paper PMC8728848
# The list shows a part of the results.
# Experiments:
# Assay in all cases: glycan array binding signal (z-score within array); higher = stronger binding
# Details in all cases: glycan notation: IUPAC condensed, linker removed
# [1] = target: Gal(a1-3)Gal(b1-3)GlcNAc
# Procedure, shortened: (§1)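 Glycan array data were curated from 3228 arrays in the Consortium for Functional Glycomics database and kept only where the protein sequence was available. Glycan names were converted to IUPAC-condensed notation, and columns mapping to the same glycan were averaged. The binding signal is a within-array Z-score, averaged across arrays of the same protein sequence at different concentrations or buffers and across linkers. Negative Z-scores can be read as non-binding.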
# [2] = target: Gal(a1-3)Gal(b1-3)GlcNAc(b1-2)Man
# Procedure, shortened: as §1
# [3] = target: Gal(a1-3)Gal(b1-3)GlcNAc(b1-2)Man(a1-3)[Gal(a1-3)Gal(b1-3)GlcNAc(b1-2)Man(a1-6)]Man(b1-4)GlcNAc(b1-4)GlcNAc
# Procedure, shortened: as §1
# [4] = target: Gal(a1-3)Gal(b1-3)GlcNAc(b1-3)GalNAc
# Procedure, shortened: as §1
# [5] = target: Gal(a1-3)Gal(b1-3)GlcNAc(b1-6)GalNAc
# Procedure, shortened: as §1
# [6] = target: Gal(a1-3)Gal(b1-3)[Fuc(a1-4)]GlcNAc(b1-2)Man(a1-3)[Gal(a1-3)Gal(b1-3)[Fuc(a1-4)]GlcNAc(b1-2)Man(a1-6)]Man(b1-4)GlcNAc(b1-4)GlcNAc
# Procedure, shortened: as §1
# [7] = target: Gal(a1-3)Gal(b1-4)Glc
# Procedure, shortened: as §1
# [8] = target: Gal(a1-3)Gal(b1-4)GlcNAc
# Procedure, shortened: as §1
# [9] = target: Gal(a1-3)Gal(b1-4)GlcNAc(b1-2)Man
# Procedure, shortened: as §1
# [10] = target: Gal(a1-3)Gal(b1-4)GlcNAc(b1-2)Man(a1-3)[Gal(a1-3)Gal(b1-4)GlcNAc(b1-2)Man(a1-6)]Man(b1-4)GlcNAc(b1-4)GlcNAc
# Procedure, shortened: as §1
# [11] = target: Gal(a1-3)Gal(b1-4)GlcNAc(b1-3)GalNAc
# Procedure, shortened: as §1
# [12] = target: Gal(a1-3)Gal(b1-4)GlcNAc(b1-6)GalNAc
# Procedure, shortened: as §1
# [13] = target: Gal(a1-3)Gal(b1-4)[Fuc(a1-3)]GlcNAc
# Procedure, shortened: as §1
# [14] = target: Gal(a1-3)Gal(b1-4)[Fuc(a1-3)]GlcNAc(b1-2)Man(a1-3)[Gal(a1-3)Gal(b1-4)[Fuc(a1-3)]GlcNAc(b1-2)Man(a1-6)]Man(b1-4)GlcNAc(b1-4)GlcNAc
# Procedure, shortened: as §1
# [15] = target: Gal(a1-3)GalNAc
# Procedure, shortened: as §1
# [16] = target: Gal(a1-3)[Gal(a1-4)]Gal(b1-4)GlcNAc
# Procedure, shortened: as §1
# [17] = target: Gal(a1-4)Gal(b1-3)GlcNAc(b1-2)Man(a1-3)[Gal(a1-4)Gal(b1-3)GlcNAc(b1-2)Man(a1-6)]Man(b1-4)GlcNAc(b1-4)GlcNAc
# Procedure, shortened: as §1
# [18] = target: Gal(a1-4)Gal(b1-4)Glc
# Procedure, shortened: as §1
# [19] = target: Gal(a1-4)Gal(b1-4)GlcNAc
# Procedure, shortened: as §1
# [20] = target: Gal(a1-4)Gal(b1-4)GlcNAc(b1-2)Man(a1-3)[Gal(a1-4)Gal(b1-4)GlcNAc(b1-2)Man(a1-6)]Man(b1-4)GlcNAc(b1-4)GlcNAc
# Procedure, shortened: as §1
# [21] = target: Gal(a1-4)Gal(b1-4)GlcNAc(b1-3)Gal(b1-4)Glc
# Procedure, shortened: as §1
# [22] = target: Gal(a1-4)GlcNAc
# Procedure, shortened: as §1
# [23] = target: Gal(a1-6)Glc
# Procedure, shortened: as §1
# [24] = target: Gal(b1-2)Gal
# Procedure, shortened: as §1
# [25] = target: Gal(b1-3)Gal
# Procedure, shortened: as §1
# [26] = target: Gal(b1-3)Gal(b1-4)GlcNAc
# Procedure, shortened: as §1
# [27] = target: Gal(b1-3)GalNAc
# Procedure, shortened: as §1
# [28] = target: Gal(b1-3)GalNAc(a1-3)[Fuc(a1-2)]Gal(b1-4)Glc
# Procedure, shortened: as §1
# [29] = target: Gal(b1-3)GalNAc(a1-3)[Fuc(a1-2)]Gal(b1-4)GlcNAc
# Procedure, shortened: as §1
# [30] = target: Gal(b1-3)GalNAc(b1-3)Gal
# Procedure, shortened: as §1
# [31] = target: Gal(b1-3)GalNAc(b1-3)Gal(a1-4)Gal(b1-4)Glc
# Procedure, shortened: as §1
# [32] = target: Gal(b1-3)GalNAc(b1-4)Gal(b1-4)Glc
# Procedure, shortened: as §1
# [33] = target: Gal(b1-3)GalNAc(b1-4)[Neu5Ac(a2-3)]Gal(b1-4)Glc
# Procedure, shortened: as §1
# [34] = target: Gal(b1-3)GlcNAc
# Procedure, shortened: as §1
# [35] = target: Gal(b1-3)GlcNAc(a1-3)Gal(b1-4)GlcNAc
# Procedure, shortened: as §1
# [36] = target: Gal(b1-3)GlcNAc(a1-6)Gal(b1-4)GlcNAc
# Procedure, shortened: as §1
# [37] = target: Gal(b1-3)GlcNAc(b1-2)Man
# Procedure, shortened: as §1
# [38] = target: Gal(b1-3)GlcNAc(b1-2)Man(a1-3)[Gal(b1-3)GlcNAc(b1-2)Man(a1-6)]Man(b1-4)GlcNAc(b1-4)GlcNAc
# Procedure, shortened: as §1
binder,measurement,setting,value
Pwp6 (Candida glabrata) (protein) MGSSHHHHHHSSGLVPRGSHMASANLPKLTNICQIPDNVKKTSGFKGEIRRIGLFPPGGDYTYLLKFPSTGSTASDTISLTTKPQLSTSGWFPSLFGHTYFIKADLLVYMVAYFVPTETGEYTFKLVNSDDAAVMYVGNPSAFPCGSIDTWPEPRKEDINVCDKISASTKLYMEKGLAYPVRLVWYNGGGDGQFNAQFIDPSGTTHTDWNGYVWQYDACTDCDYK,glycan array binding signal (z-score),[1],-0.768
same,glycan array binding signal (z-score),[2],-0.557
same,glycan array binding signal (z-score),[3],0.254
same,glycan array binding signal (z-score),[4],-0.268
same,glycan array binding signal (z-score),[5],-0.137
same,glycan array binding signal (z-score),[6],1.15
same,glycan array binding signal (z-score),[7],-0.487
same,glycan array binding signal (z-score),[8],-0.684
same,glycan array binding signal (z-score),[9],-0.387
same,glycan array binding signal (z-score),[10],0.491
same,glycan array binding signal (z-score),[11],-0.062
same,glycan array binding signal (z-score),[12],0.221
same,glycan array binding signal (z-score),[13],-0.637
same,glycan array binding signal (z-score),[14],1.96
same,glycan array binding signal (z-score),[15],-0.551
same,glycan array binding signal (z-score),[16],-0.638
same,glycan array binding signal (z-score),[17],0.15
same,glycan array binding signal (z-score),[18],-0.407
same,glycan array binding signal (z-score),[19],-0.715
same,glycan array binding signal (z-score),[20],1.05
same,glycan array binding signal (z-score),[21],-0.294
same,glycan array binding signal (z-score),[22],-0.819
same,glycan array binding signal (z-score),[23],-0.322
same,glycan array binding signal (z-score),[24],-0.685
same,glycan array binding signal (z-score),[25],-0.945
same,glycan array binding signal (z-score),[26],-0.617
same,glycan array binding signal (z-score),[27],-0.22
same,glycan array binding signal (z-score),[28],-0.124
same,glycan array binding signal (z-score),[29],-0.316
same,glycan array binding signal (z-score),[30],-0.632
same,glycan array binding signal (z-score),[31],-0.281
same,glycan array binding signal (z-score),[32],0.163
same,glycan array binding signal (z-score),[33],-0.134
same,glycan array binding signal (z-score),[34],-0.708
same,glycan array binding signal (z-score),[35],-0.532
same,glycan array binding signal (z-score),[36],-0.419
same,glycan array binding signal (z-score),[37],-0.876
same,glycan array binding signal (z-score),[38],0.331

# Exported with tabs: part of the list above.
binder	measurement	setting	value
Pwp6 (Candida glabrata) (protein) MGSSHHHHHHSSGLVPRGSHMASANLPKLTNICQIPDNVKKTSGFKGEIRRIGLFPPGGDYTYLLKFPSTGSTASDTISLTTKPQLSTSGWFPSLFGHTYFIKADLLVYMVAYFVPTETGEYTFKLVNSDDAAVMYVGNPSAFPCGSIDTWPEPRKEDINVCDKISASTKLYMEKGLAYPVRLVWYNGGGDGQFNAQFIDPSGTTHTDWNGYVWQYDACTDCDYK	glycan array binding signal (z-score)	[15]	-0.551
same	glycan array binding signal (z-score)	[16]	-0.638
same	glycan array binding signal (z-score)	[17]	0.15
